Results are given in words; binding and its absence hold for the method and conditions named. Binding can be weak; no strength is given.

Amino acid sequences for entries named in this document (tags omitted). A change or cut given only in a name is not applied to a line headed by its entry. Residues count along the entry.
UniProt P18075, residues 293-431: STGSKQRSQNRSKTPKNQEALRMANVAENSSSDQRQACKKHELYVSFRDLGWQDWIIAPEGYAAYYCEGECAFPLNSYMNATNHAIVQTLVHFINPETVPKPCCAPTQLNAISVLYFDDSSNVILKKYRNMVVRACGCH
UniProt Q9GZX9: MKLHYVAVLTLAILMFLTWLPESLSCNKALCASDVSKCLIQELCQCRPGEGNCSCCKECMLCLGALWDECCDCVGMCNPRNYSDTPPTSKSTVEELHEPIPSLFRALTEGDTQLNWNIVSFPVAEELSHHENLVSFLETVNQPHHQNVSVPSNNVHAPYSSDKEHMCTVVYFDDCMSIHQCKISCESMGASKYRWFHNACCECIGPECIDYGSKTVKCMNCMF

The target in one assay is human BMP7 (human) (UniProt P18075). Kind of assay: SPR; equilibrium binding, Biacore T200, 25 °C; BMP2, BMP7, GDF5 or CHRDL2 amine-coupled to a CM5 chip, TWSG1 proteins as analytes; 0.15 M NaCl, 20 mM HEPES pH 7.5, 2 mM CaCl2, 0.005% Tween 20; 1:1 binding isotherm; both purified.
Another assay has as its target T1, human BMP2 (human) (UniProt P12643).
T1 sequence: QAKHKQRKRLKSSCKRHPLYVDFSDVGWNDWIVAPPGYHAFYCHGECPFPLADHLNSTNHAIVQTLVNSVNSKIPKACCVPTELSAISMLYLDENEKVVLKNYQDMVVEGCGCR
The assay is described as above.

Take TWSG1 Asp34Ala (from UniProt Q9GZX9): the binding result with human BMP7 (human) and with human BMP2 (human) was “binds” in each case.
